Consider two substances from paper doi:10.1101/2025.09.11.675134 (bioRxiv, 2025).

This data set is described as follows: general procedure: Fmoc solid-phase peptide synthesis; O-t-Butyl-L-threonine-2-chlorotrityl resin; HBTU. The following applies: late stage modification step.

For DOTA-β-Gal-TATE [DOTA-β-Gal-TATE], the step yield is 45%. Besides, the “final HPLC purity” value (220 nm) is given as above 95%. DOTA-β-Glu-TATE came in with a step yield of 40%.
